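Human melanoma cell lines in 1,536-well plates were treated with a pair of drugs for 72 h, then fixed, stained and imaged. The read-out is cell count (nuclei) in % of the DMSO control; lower values mean stronger growth inhibition or killing. Concentrations were fixed for each drug; these are the higher of two levels. The file gives one value for each pair and line, without errors, so small differences may be noise.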
This is part of the screen, not chosen by result.

Every entry is a combination with MK-1775 at 100 nM: C=CCn1c(=O)c2cnc(Nc3ccc(N4CCN(C)CC4)cc3)nc2n1-c1cccc(C(C)(C)O)n1

* C[As](C)SC[C@H](NC(=O)CC[C@H](N)C(=O)O)C(=O)NCC(=O)O at 2000 nM | WM451Lu: 57.7; WM3619: 37.4
* COc1ccc2c(c1)CCC1C2CCC2(C)C(NCCCCCCN3C(=O)C=CC3=O)CCC12 (centres unmarked) at 2000 nM | WM451Lu: 85.5; WM3619: 21.6
* CN1CCN(c2ccc3nc(-c4c(N)c5c(F)cccc5[nH]c4=O)[nH]c3c2)CC1 at 500 nM | WM451Lu: 87.1; WM3619: 46.6
* NCC(=O)Nc1ccc(-n2nc(C(F)(F)F)cc2-c2ccc3c(ccc4ccccc43)c2)cc1 at 5000 nM | WM451Lu: 89.3; WM3619: 7.9
* COCC[n+]1c2c(n(Cc3cnccn3)c1C)C(=O)c1ccccc1C2=O at 2 nM | WM451Lu: 40.2; WM3619: 45.9
* C[C@]1(c2nc3c(C(N)=O)cccc3[nH]2)CCCN1 at 7000 nM | WM451Lu: 89.7; WM3619: 48.6
* Cc1cc(Nc2cc(N3CCN(C)CC3)nc(/C=C/c3ccccc3)n2)n[nH]1 at 200 nM | WM451Lu: 97.8; WM3619: 31.2
* O=C(Nc1ccccc1)c1cc([N+](=O)[O-])ccc1Cl at 10000 nM | WM451Lu: 71.6; WM3619: 33.4
* C[C@@H](Oc1cc(-c2cnn(C3CCNCC3)c2)cnc1N)c1c(Cl)ccc(F)c1Cl at 1000 nM | WM451Lu: 87.7; WM3619: 44.3
* CN(c1ncccc1CNc1nc(Nc2ccc3c(c2)CC(=O)N3)ncc1C(F)(F)F)S(C)(=O)=O at 400 nM | WM451Lu: 62.6; WM3619: 66.1
* Cn1nnc2c(C(N)=O)ncn2c1=O at 10000 nM | WM451Lu: 75.7; WM3619: 38.6
* COc1ccc(-c2ccc3c(N4CCOCC4)nc(N4C[C@@H](C)O[C@@H](C)C4)nc3n2)cc1CO at 100 nM | WM451Lu: 92.6; WM3619: 33.0
* CC1(C)CCC(c2ccc(Cl)cc2)=C(CN2CCN(c3ccc(C(=O)NS(=O)(=O)c4ccc(N[C@H](CCN5CCOCC5)CSc5ccccc5)c(S(=O)(=O)C(F)(F)F)c4)cc3)CC2)C1 at 2000 nM | WM451Lu: 66.5; WM3619: 15.9
* C=C(c1ccc(C(=O)O)cc1)c1cc2c(cc1C)C(C)(C)CCC2(C)C at 10000 nM | WM451Lu: 98.5; WM3619: 46.9
* Cc1cn(-c2cc(NC(=O)c3ccc(C)c(Nc4nccc(-c5cccnc5)n4)c3)cc(C(F)(F)F)c2)cn1 at 1000 nM | WM451Lu: 89.1; WM3619: 34.1
* O=c1cc(-c2cccc3c2Sc2ccccc2S3)oc(N2CCOCC2)c1 at 5000 nM | WM451Lu: 87.6; WM3619: 41.4
* COc1cc2c(Oc3ccc4[nH]c(C)cc4c3F)ncnc2cc1OCCCN1CCCC1 at 2000 nM | WM451Lu: 78.2; WM3619: 45.6
* Nc1cccc2c1CN(C1CCC(=O)NC1=O)C2=O (centres unmarked) at 5000 nM | WM451Lu: 91.7; WM3619: 39.0

Some entries from above, unchanged:

| Partner | WM451Lu | WM3619 |
|---|---|---|
| C[C@]1(c2nc3c(C(N)=O)cccc3[nH]2)CCCN1 at 7000 nM | 89.7 | 48.6 |
| Cc1cc(Nc2cc(N3CCN(C)CC3)nc(/C=C/c3ccccc3)n2)n[nH]1 at 200 nM | 97.8 | 31.2 |

Data from the primary screen of doi:10.1371/journal.pone.0140310, rounded.